From patent US20030187244A1
No constants are given. Whether binding was seen depends on the method and setting. Some binding calls cover weakened binding; strength is not graded here.

Protein sequences, listed by entry. Tags and fused reporters are not part of them. Residues count along the entry.
UniProt P21730: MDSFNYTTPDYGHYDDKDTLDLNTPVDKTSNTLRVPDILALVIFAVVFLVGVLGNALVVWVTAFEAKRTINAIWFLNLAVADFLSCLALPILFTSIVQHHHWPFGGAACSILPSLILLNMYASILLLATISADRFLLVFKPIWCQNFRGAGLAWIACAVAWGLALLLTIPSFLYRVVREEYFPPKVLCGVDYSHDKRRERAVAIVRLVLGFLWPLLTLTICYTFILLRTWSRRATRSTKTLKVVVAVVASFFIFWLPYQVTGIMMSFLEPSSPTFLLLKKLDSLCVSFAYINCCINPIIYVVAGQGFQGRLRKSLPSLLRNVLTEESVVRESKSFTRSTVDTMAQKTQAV
UniProt P01031, residues 678-751: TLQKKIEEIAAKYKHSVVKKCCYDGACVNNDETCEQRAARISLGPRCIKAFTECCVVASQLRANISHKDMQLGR

Target: C5aR (UniProt P21730)
Assay: ligand binding to transfected cells expressing C5aR

binding: binds
Substance: C5a (from UniProt P01031 678-751) (ligand)
